The results in this text go back to PMC7819943, “Rice protein-binding microarrays: a tool to detect cis-acting elements near promoter regions in rice”.

Chains of the proteins cited; added tags and fusions are not shown.
UniProt Q0JBA9, entry or part of it: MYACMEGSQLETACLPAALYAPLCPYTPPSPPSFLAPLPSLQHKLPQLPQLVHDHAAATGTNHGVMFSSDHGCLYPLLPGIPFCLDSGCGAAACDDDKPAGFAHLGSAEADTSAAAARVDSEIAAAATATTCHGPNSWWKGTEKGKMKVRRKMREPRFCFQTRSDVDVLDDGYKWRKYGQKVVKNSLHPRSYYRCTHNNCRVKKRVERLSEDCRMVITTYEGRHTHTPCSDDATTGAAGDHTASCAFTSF

The list shows a part of the results.

This assay addresses OsWRKY34 (Oryza sativa, UniProt Q0JBA9 1-250). The assay can be described thus: protein-binding microarray (RPBM); PBS, 2% BSA, 51.3 ng/ul salmon testes DNA, 50 uM zinc acetate, 200 nM TF, 25 C, 1 h; high values mean tight binding. The settings on record: protein: recombinant; tags: N-terminal polyhistidine and DsRed monomer fusion (pET32a); label: CyDye5-dUTP incorporated in the synthesized complementary strand; 3' TTTTT single-stranded linker to array surface; dsDNA, one strand shown. The gist of the method:
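For the binding signal, per-feature fluorescence intensity was read in arbitrary units on an Axon 4000B scanner. Before scanning, a 2% BSA-blocked custom Agilent array made double-stranded with Cy5-dUTP was washed after 1 h at 25 °C with 200 nM protein and 50 µM zinc acetate. The proteins were Ni–NTA-purified transcription factors with N-terminal polyhistidine and DsRed fusions, expressed in E. coli BL21-CodonPlus.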
Take “CGAACGAACGACGCCACCGCCCACCACCTCCACCACCAACCGGAGTCACCTAGTGCAG”: the binding signal is 8500 fluorescence intensity (a.u.).

In the case of “GAGTCACTGTCTCCTCCTCGCCGTCCCTAGTCAACGTCTTCGGAGTCACCTAGTGCAG”, the binding signal is 9770 fluorescence intensity (a.u.).

Turning to “CAGACCAGCCCACAACTCGCAATCCATCTTGGGCCTATTTCGGAGTCACCTAGTGCAG”, the binding signal is 8590 fluorescence intensity (a.u.).

Take “CCCTCTCTGTTGTTTGCTCATCGATCATTGAGGGCGAGGTCGGAGTCACCTAGTGCAG”: the binding signal is 8140 fluorescence intensity (a.u.).

Take “ATTTTCAGTCTTTCATTTTTACAGATACTCATTGCATTAACGGAGTCACCTAGTGCAG”: the binding signal was 8230 fluorescence intensity (a.u.).

With “GGCGACAAGGTAGGGTTAGGGTTTCGATCTTTTGATCCGTCGGAGTCACCTAGTGCAG”, the binding signal is 10000 fluorescence intensity (a.u.).

Consider “CTAATTGCAGAGGGTGTGGATGCTACTGTATTCGGGCGCCCGGAGTCACCTAGTGCAG”, for which the binding signal is 9280 fluorescence intensity (a.u.).

“ATTATCATCTTCTTTTTTTTTCCACCTTTTTACATACTTACGGAGTCACCTAGTGCAG”: the binding signal is 9290 fluorescence intensity (a.u.).

Regarding “ATGTTCGGGCTTGCTTTGGTTTCTATCCTGAGTTGGACGTCGGAGTCACCTAGTGCAG”, the binding signal was 9380 fluorescence intensity (a.u.).

Consider “AGCTAGTCTTCTAGTCCTTTTTCTTTTCGGTTGATTGTTTCGGAGTCACCTAGTGCAG”, for which the binding signal is 9430 fluorescence intensity (a.u.).

In the case of “AGATAATATTTCATCTCTATCATTATGCATTTATTTACACCGGAGTCACCTAGTGCAG”, the binding signal was 9200 fluorescence intensity (a.u.).

On to “TCCGCCGTCGCCGCTCCGTCCATCGCCCGCCGTCACCGCCCGGAGTCACCTAGTGCAG”, for which the binding signal is 9200 fluorescence intensity (a.u.).

Consider “CAATCCGCCTCGCTCTCGCCGCCCGCACCCACGCTCACGCCGGAGTCACCTAGTGCAG”, for which the binding signal is 10300 fluorescence intensity (a.u.).

With “CCCAGGCAGCTCTCTATATATATATCACTATATCAGAATCCGGAGTCACCTAGTGCAG”, the binding signal is 8780 fluorescence intensity (a.u.).

“CTGTTGCGGCTTGTTTGTTAACTCGAGGGAAGGGGATTGGCGGAGTCACCTAGTGCAG”: the binding signal was 8070 fluorescence intensity (a.u.).

As to “CACTTTCCTACACACGTAAACTTCCAACTTTTCCATCACACGGAGTCACCTAGTGCAG”, the binding signal is 10100 fluorescence intensity (a.u.).

As for “ATGGTTCACCAGACTTCGGATTTAGCCTTTTATCTTTTTTCGGAGTCACCTAGTGCAG”, the binding signal is 8690 fluorescence intensity (a.u.).

For “TGGGGAGGAGGAGCATAATGCAGGTGCTGGCCAGATTTTTCGGAGTCACCTAGTGCAG”, the binding signal was 8430 fluorescence intensity (a.u.).

Regarding “ACTGTCTAGCTTTACTAGTACTACTATTGATCGAGTCAATCGGAGTCACCTAGTGCAG”, the binding signal is 9730 fluorescence intensity (a.u.).

With “TTTTTCTGTTTTCTGTTTGCAAGGTCCTGACCTTTTTCAACGGAGTCACCTAGTGCAG”, the binding signal is 12500 fluorescence intensity (a.u.).

As for “GGTTTGAATGGTTGCATGGATTTTTCACGTAAAATATTAACGGAGTCACCTAGTGCAG”, the binding signal is 9500 fluorescence intensity (a.u.).

For the sequence “TGCCACCCGATCTCCTTCCAGTGTTATTCAACACCCGTCCCGGAGTCACCTAGTGCAG”, the binding signal is 8610 fluorescence intensity (a.u.).

Consider “ATATGTCAGTTGCACATTTTCTTTCTTTTCCTTTCCTTCTCGGAGTCACCTAGTGCAG”, for which the binding signal is 8340 fluorescence intensity (a.u.).

On to “TGTCCCTGTCTATTTTACCTCTATATCGCACGTACTCCGGCGGAGTCACCTAGTGCAG”, for which the binding signal is 8700 fluorescence intensity (a.u.).

On to “GTTGTTCCGATTCTCAAGCTACACACGACACCCACGTCCGCGGAGTCACCTAGTGCAG”, for which the binding signal is 9050 fluorescence intensity (a.u.).

Turning to “CAATATGCCATTGTGGAGATGTTTTCTTTCTTTTTTTTTTCGGAGTCACCTAGTGCAG”, the binding signal was 8540 fluorescence intensity (a.u.).

Regarding “AACTGAATTGTTGGTTTTTTCGGTTTTCGGTTGTCAGTTCCGGAGTCACCTAGTGCAG”, the binding signal was 11900 fluorescence intensity (a.u.).

Take “TATCAGGAGATCGGTCCCTTGTGCATCTTCCCCGTCTTGACGGAGTCACCTAGTGCAG”: the binding signal was 8840 fluorescence intensity (a.u.).

For “CCTGACCATCCGTTTCGTCCTCCTTTCCTGTGCTTTTTCCCGGAGTCACCTAGTGCAG”, the binding signal is 9870 fluorescence intensity (a.u.).

Regarding “CCCCGCGAAAGCCTCCGCCACCCGTTACCGGCCGCAACCCCGGAGTCACCTAGTGCAG”, the binding signal was 9470 fluorescence intensity (a.u.).

Consider “CCTTTCAAACAACACTTTCGTTTTTCAATTATCTATTTTACGGAGTCACCTAGTGCAG”, for which the binding signal is 8360 fluorescence intensity (a.u.).

On to “TTGAATTGAATTATTATGCTCATCGCTTTCGCATAACCTCCGGAGTCACCTAGTGCAG”, for which the binding signal was 8320 fluorescence intensity (a.u.).

Take “TCTCTCTCTCTCTCTCTCTCTCTCTCTCTCTCTCTTGCAACGGAGTCACCTAGTGCAG”: the binding signal is 9780 fluorescence intensity (a.u.).

Take “ACTATATTCTGTTTTGTTCTGTTAATTTACTATTCTGTTTCGGAGTCACCTAGTGCAG”: the binding signal is 10500 fluorescence intensity (a.u.).

For the sequence “GGTGGCATCAAGTATCCAACATTCTAACCTCGTTGCATCCCGGAGTCACCTAGTGCAG”, the binding signal is 9660 fluorescence intensity (a.u.).

“CCCCAACCGCTTCTTTCGCACTCGCCGTTTTGGTTTTCGTCGGAGTCACCTAGTGCAG”: the binding signal was 9000 fluorescence intensity (a.u.).

With “TTTCATGCAGTGCGAGCAACCCACCATTTCCATCTAAATTCGGAGTCACCTAGTGCAG”, the binding signal was 8140 fluorescence intensity (a.u.).

Regarding “TTTGACGCTGTTGACTTTTTTTAACATGTTTGACTGTTCGCGGAGTCACCTAGTGCAG”, the binding signal is 32700 fluorescence intensity (a.u.).

Consider “TCATCACTCATCACTCGTTCTTTCGTTACTCATGGAACGGCGGAGTCACCTAGTGCAG”, for which the binding signal is 8380 fluorescence intensity (a.u.).

Regarding “GAACCCATGACCTGACTGACCTTCACACGCACGTGCCACACGGAGTCACCTAGTGCAG”, the binding signal was 8600 fluorescence intensity (a.u.).

As for “CAGGAACTCATTTGGCCTCTCATTCTTCTCCAACCTTTCTCGGAGTCACCTAGTGCAG”, the binding signal was 8450 fluorescence intensity (a.u.).

As to “TCTGCTGCCGAAATTCGGCGCGGCCGCCGCAGCATACACACGGAGTCACCTAGTGCAG”, the binding signal is 9420 fluorescence intensity (a.u.).
